Test results published in article doi:10.1101/823096.

What was measured:
Experiment in all cases: co-IP
[1] = molecular target: SV40 ST F148A, CTAP-tagged (SV40)
[2] = molecular target: SV40 ST P132A, CTAP-tagged (SV40)
[3] = molecular target: SV40 ST R21A, CTAP-tagged (SV40)
[4] = molecular target: SV40 ST W147A, CTAP-tagged (SV40)

Measured: binding

B1: STRN3, endogenous (protein, UniProt Q13033 1-797)
chain: MDELAGGGGGGPGMAAPPRQQQGPGGNLGLSPGGNGAAGGGGPPASEGAGPAAGPELSRPQQYTIPGILHYIQHEWARFEMERAHWEVERAELQARIAFLQGERKGQENLKKDLVRRIKMLEYALKQERAKYHKLKYGTELNQGDLKMPTFESEETKDTEAPTAPQNSQLTWKQGRQLLRQYLQEVGYTDTILDVRSQRVRSLLGLSNSEPNGSVETKNLEQILNGGESPKQKGQEIKRSSGDVLETFNFLENADDSDEDEENDMIEGIPEGKDKHRMNKHKIGNEGLAADLTDDPDTEEALKEFDFLVTAEDGEGAGEARSSGDGTEWDKDDLSPTAEVWDVDQGLISKLKEQYKKERKGKKGVKRANRTKLYDMIADLGDDELPHIPSGIINQSRSASTRMTDHEGARAEEAEPITFPSGGGKSFIMGSDDVLLSVLGLGDLADLTVTNDADYSYDLPANKDAFRKTWNPKYTLRSHFDGVRALAFHPVEPVLVTASEDHTLKLWNLQKTVPAKKSASLDVEPIYTFRAHIGPVLSLAISSNGEQCFSGGIDATIQWWNMPSPSVDPYDTYEPNVLAGTLVGHTDAVWGLAYSGIKNQLLSCSADGTVRLWNPQEKLPCICTYNGDKKHGIPTSVDFIGCDPAHMVTSFNTGSAVIYDLETSQSLVILSSQVDSGLQSNNHINRVVSHPTLPVTITAHEDRHIKFFDNKTGKMIHSMVAHLDAVTSLAVDPNGIYLMSGSHDCSIRLWNLDSKTCVQEITAHRKKLDESIYDVAFHSSKAYIASAGADALAKVFV
no binding: [1] | [2] | [3] | [4]

Results are given in words; binding and its absence hold for the method and conditions named. In cells and extracts the contact can be indirect.
